Assay results as given in patent publication US11353461B2, “Methods of enhancing MS detection of tagged glycans” (WATERS TECHNOLOGIES CORPORATION, priority 2016, dated 2022).

Legend:
[1] = HILIC-MS response factors of N-glycans labeled with Compounds 1, 2 and 3 (Synapt G2-S); set-up: species or system murine; settings: ESI+ MS
Procedure: The response factors of N-glycans (glycosylamines) labeled with Compounds 1, 2 and 3 were evaluated via HILIC separations obtained with a UHPLC chromatograph (ACQUITY UPLC H-Class Bio, Waters, Milford, Mass.). Labeled glycans from 0.4 μg glycoprotein were separated using a 2.1×50 mm column packed with 1.7 μm amide bonded organosilica (130 Å) stationary phase (ACQUITY UPLC Glycan BEH Amide 130 Å, Waters, Milford, Mass.) along with an aqueous mobile phase comprised of 50 mM ammonium formate (pH 4.4) and another of ACN. Samples were injected as 1 μL aqueous volumes and separated at 60° C. with a flow rate of 0.4 mL/min and a 35-minute gradient going from 25 to 46% aqueous mobile phase. Eluting glycans were detected by positive ion mode electrospray ionization mass spectrometry using an ion mobility capable QT of mass spectrometer (Synapt G2-S, Waters, Milford, Mass.) operating with a capillary voltage of 3.0 kV, source temperature of 120° C., desolvation temperature of 350° C., and sample cone voltage of 80 V. Mass spectra were acquired at a rate of 1 Hz with a resolution of approximately 20,000 over a range of 500-2500 m/z.

[2] = HILIC-MS response factors of N-glycans labeled with Compounds 1, 4 and 5 (Xevo G2-XS); set-up: species or system murine
Procedure: The response factors of N-glycans (glycosylamines) labeled with Compounds 1, 4 and 5 were evaluated via HILIC separations obtained with a UHPLC chromatograph (ACQUITY UPLC H-Class Bio, Waters, Milford, Mass.). Labeled glycans from 0.1 μg glycoprotein were separated using a 2.1×50 mm column packed with 1.7 μm amide bonded organosilica (130 Å) stationary phase (ACQUITY UPLC Glycan BEH Amide 130 Å, Waters, Milford, Mass.) along with an aqueous mobile phase comprised of 50 mM ammonium formate (pH 4.4) and another of ACN. Samples were injected as 0.2 μL aqueous volumes and separated at 60° C. with a flow rate of 0.4 mL/min and a 35-minute gradient going from 25 to 46% aqueous mobile phase. Eluting glycans were detected by positive ion mode electrospray ionization mass spectrometry using a QT of mass spectrometer (Xevo G2-XS QT of, Waters, Milford, Mass.) operating with a capillary voltage of 2.2 kV, source temperature of 120° C., desolvation temperature of 450° C., and sample cone voltage of 75 V. Mass spectra were acquired at a rate of 2 Hz with a resolution of approximately 40,000 over a range of 500-2500 m/z.

Structure (SMILES): CCN(CC)CCNC(=O)c1ccc2cc(NC(=O)ON3C(=O)CCC3=O)ccc2n1 [RapiFluor-MS]
- increase in MS response versus a benzamide label (from Compound 2) [1]: ~600 ×
- increase in MS response versus a quinoline label (from Compound 3) [1]: ~200 ×
- increase in MS response versus procainamide and procaine-based labels (from Compounds 4 and 5) ([2]; ESI+ MS, labeled glycans): ~2 ×
- average charge states of labeled glycans ([2]; FA2Ga1Sg1 N-glycan, compared with Compounds 4 and 5 (FIG. 8)): comparatively higher average charge states
